Measured values reported in publication PMC8449257.
No constants are given. Whether binding was seen depends on the method and setting. Some results given as binding are weak or reduced against the parent protein; the word gives no strength.

T1: UNC-112 C-terminal half (397-720 aa) (C. elegans) (UniProt Q18685)
T1 sequence: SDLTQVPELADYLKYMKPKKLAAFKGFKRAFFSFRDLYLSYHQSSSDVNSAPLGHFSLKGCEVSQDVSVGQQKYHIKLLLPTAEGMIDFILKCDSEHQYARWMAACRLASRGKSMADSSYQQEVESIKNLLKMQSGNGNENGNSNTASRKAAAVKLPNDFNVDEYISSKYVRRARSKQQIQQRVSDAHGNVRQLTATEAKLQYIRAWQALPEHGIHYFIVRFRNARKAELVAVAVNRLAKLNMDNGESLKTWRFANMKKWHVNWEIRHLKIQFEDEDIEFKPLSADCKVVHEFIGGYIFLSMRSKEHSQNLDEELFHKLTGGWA

T2: PAT-4 (integrin linked kinase; ILK), full length (C. elegans) (UniProt Q9TZC4)
T2 sequence: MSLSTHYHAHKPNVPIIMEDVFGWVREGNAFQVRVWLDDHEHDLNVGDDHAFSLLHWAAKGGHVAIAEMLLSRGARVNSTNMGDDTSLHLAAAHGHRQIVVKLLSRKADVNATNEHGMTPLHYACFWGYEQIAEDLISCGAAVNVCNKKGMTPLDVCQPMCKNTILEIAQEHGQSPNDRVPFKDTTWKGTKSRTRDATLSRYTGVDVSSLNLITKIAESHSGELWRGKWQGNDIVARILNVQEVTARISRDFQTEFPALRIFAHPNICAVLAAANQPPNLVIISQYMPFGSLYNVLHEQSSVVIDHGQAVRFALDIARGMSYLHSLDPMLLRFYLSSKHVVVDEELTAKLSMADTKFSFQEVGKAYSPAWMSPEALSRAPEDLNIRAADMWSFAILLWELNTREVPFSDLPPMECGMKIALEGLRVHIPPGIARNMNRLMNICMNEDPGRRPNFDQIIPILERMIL


Columns and labels:
[1] = target: T1, UNC-112 C-terminal half (397-720 aa) (C. elegans); test: two-hybrid; yeast PJ69-4A; UNC-112 forms as prey (pGAD-C3 or pACT-Q), PAT-4 or UNC-112C as bait (pGBDU); read-out is growth on His- (2 mM 3-amino-1,2,4-triazole in the screen) and Ade- plates
[2] = target: T2, PAT-4 (integrin linked kinase; ILK), full length (C. elegans); test: as above

binding [1] | binding [2] | Binder
binds | no binding | UNC-112 N-terminal half (1-396 aa) with E302G (domain or fragment, UniProt Q18685 1-396) MAHLVEGTSIIDGKWQLPILVTDLNIQRSISVLGNLNVGGLMLELVSECDVERDWSDHALWWPEKRRWLQHTRSTLDQNGITAETQLEFTPMHKEARIQLPDMQMIDARVDFSVNSFKATKKLCRDLGIRYSEELSLKRYIPPEDLRRGTSDADNMNGPLSMRPGEESVGPMTLRKAAPIFASQSNLDMRRRGQSPALSQSGHIFNAHEMGTLPRHGTLPRGVSPSPGAYNDTMRRTPIMPSISFSEGLENEQFDDALIHSPRLAPSRDTPVFRPQNYVEKAAINRGWLDSSRSLMEQGIFGGDIILLRFKFMNFFDLNPKYDPVRINQLYEQAKWSILLDEFDHTEEEATLFAALQLQATLQRDSPEPEENNKDDVDILLDELEQNLDAAALNRR
 | binds | UNC-112 (kindlin), wild type (protein, UniProt Q18685 1-720) MAHLVEGTSIIDGKWQLPILVTDLNIQRSISVLGNLNVGGLMLELVSECDVERDWSDHALWWPEKRRWLQHTRSTLDQNGITAETQLEFTPMHKEARIQLPDMQMIDARVDFSVNSFKATKKLCRDLGIRYSEELSLKRYIPPEDLRRGTSDADNMNGPLSMRPGEESVGPMTLRKAAPIFASQSNLDMRRRGQSPALSQSGHIFNAHEMGTLPRHGTLPRGVSPSPGAYNDTMRRTPIMPSISFSEGLENEQFDDALIHSPRLAPSRDTPVFRPQNYVEKAAINRGWLDSSRSLMEQGIFEGDIILLRFKFMNFFDLNPKYDPVRINQLYEQAKWSILLDEFDHTEEEATLFAALQLQATLQRDSPEPEENNKDDVDILLDELEQNLDAAALNRRSDLTQVPELADYLKYMKPKKLAAFKGFKRAFFSFRDLYLSYHQSSSDVNSAPLGHFSLKGCEVSQDVSVGQQKYHIKLLLPTAEGMIDFILKCDSEHQYARWMAACRLASRGKSMADSSYQQEVESIKNLLKMQSGNGNENGNSNTASRKAAAVKLPNDFNVDEYISSKYVRRARSKQQIQQRVSDAHGNVRQLTATEAKLQYIRAWQALPEHGIHYFIVRFRNARKAELVAVAVNRLAKLNMDNGESLKTWRFANMKKWHVNWEIRHLKIQFEDEDIEFKPLSADCKVVHEFIGGYIFLSMRSKEHSQNLDEELFHKLTGGWA
 | no binding | UNC-112 E302G (full length) (protein, UniProt Q18685 1-720) MAHLVEGTSIIDGKWQLPILVTDLNIQRSISVLGNLNVGGLMLELVSECDVERDWSDHALWWPEKRRWLQHTRSTLDQNGITAETQLEFTPMHKEARIQLPDMQMIDARVDFSVNSFKATKKLCRDLGIRYSEELSLKRYIPPEDLRRGTSDADNMNGPLSMRPGEESVGPMTLRKAAPIFASQSNLDMRRRGQSPALSQSGHIFNAHEMGTLPRHGTLPRGVSPSPGAYNDTMRRTPIMPSISFSEGLENEQFDDALIHSPRLAPSRDTPVFRPQNYVEKAAINRGWLDSSRSLMEQGIFGGDIILLRFKFMNFFDLNPKYDPVRINQLYEQAKWSILLDEFDHTEEEATLFAALQLQATLQRDSPEPEENNKDDVDILLDELEQNLDAAALNRRSDLTQVPELADYLKYMKPKKLAAFKGFKRAFFSFRDLYLSYHQSSSDVNSAPLGHFSLKGCEVSQDVSVGQQKYHIKLLLPTAEGMIDFILKCDSEHQYARWMAACRLASRGKSMADSSYQQEVESIKNLLKMQSGNGNENGNSNTASRKAAAVKLPNDFNVDEYISSKYVRRARSKQQIQQRVSDAHGNVRQLTATEAKLQYIRAWQALPEHGIHYFIVRFRNARKAELVAVAVNRLAKLNMDNGESLKTWRFANMKKWHVNWEIRHLKIQFEDEDIEFKPLSADCKVVHEFIGGYIFLSMRSKEHSQNLDEELFHKLTGGWA
